These results are taken from article PMC12285911.

No constants are given. Whether binding was seen depends on the method and setting. A result given as binding can be weak or reduced; the word gives no strength.

The experiment addresses T1, FAT10 (human leukocyte antigen-F-adjacent transcript 10), wild type, full length, unlabeled (human).
T1 sequence: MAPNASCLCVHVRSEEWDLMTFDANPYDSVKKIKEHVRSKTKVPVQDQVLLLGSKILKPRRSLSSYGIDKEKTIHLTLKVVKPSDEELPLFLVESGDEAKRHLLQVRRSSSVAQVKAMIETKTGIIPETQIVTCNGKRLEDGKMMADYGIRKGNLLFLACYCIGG
As to the kind of experiment: SEC-SAXS; NUB1 + FAT10 (50 μM + 55 μM) and NUB1^ΔUBL + FAT10 (50 μM + 55 μM) on a Shodex KW803 column in 60 mM HEPES pH 7.4, 150 mM NaCl, 5% glycerol, 0.5 mM TCEP, 22 °C; scattering compared with AlphaFold-Multimer models; both purified. A general note: Size exclusion chromatography separates by hydrodynamic size, large species first.

For NUB1^ΔUBL (human), the binding entry is “binds”.
